Test results: patent publication US5326882A, “Chemiluminescent 3-(substituted Adamant-2'-Ylidene) 1,2-dioxetanes” (Tropix, Inc., priority 1992, dated 1994)

Legend:
Format in all cases: physicochemical
[1] = Non-specific (thermal) background (Example XLI); settings: 0.4 mM dioxetane at pH 10.0, 31.5° C., no enzyme
[2] = Background signal in two buffers, Turner 20E (Example XVIII); settings: 1 mM Magnesium Chloride
[3] = Thermal background (Example XXI); settings: 0.1 M diethanolamine, 1 mM MgCl2, pH 10.0 at 30° C., no enzyme
[4] = 0.05 M Sodium Carbonate/Sodium Bicarbonate, pH 9.5
[5] = 0.1 M Diethanolamine, 0.02% Sodium Azide, pH 10.0

Structure (SMILES)	NON-SPECIFIC BACKGROUND 0.4 mM RELATIVE LUMINOMETER UNITS [1]	BACKGROUND AT 0.4 mM (TLU) [3]	other results
COC1(c2cccc(OP(=O)(O)O)c2)OOC12C1CC3CC2CC(O)(C3)C1 (single isomer, unassigned) [A-OH-AMPPD, disodium 3-(4-methoxyspiro-[1,2-dioxetane-3,2'-(5'-hydroxy)tricyclo[3.3.1.1^3,7]decan]-4-yl)phenyl phosphate]			NON-SPECIFIC BACKGROUND 0.4 mM RELATIVE LUMINOMETER UNITS ([1]; listed as HO-AMPPD-A): 0.92 RELATIVE LUMINOMETER UNITS; BACKGROUND AT 0.4 Mn (TLU) [2, 4]: 1.20 TLU; BACKGROUND AT 0.4 Mn (TLU) [2, 5]: 0.95 TLU
COC1(c2cccc(OP(=O)(O)O)c2)OOC12C1CC3CC2CC(O)(C3)C1 (single isomer, unassigned) [B-OH-AMPPD, disodium 3-(4-methoxyspiro-[1,2-dioxetane-3,2'-(5'-hydroxy)tricyclo[3.3.1.1^3,7]decan]-4-yl)phenyl phosphate]			NON-SPECIFIC BACKGROUND 0.4 mM RELATIVE LUMINOMETER UNITS ([1]; listed as HO-AMPPD-B): 1.35 RELATIVE LUMINOMETER UNITS; BACKGROUND AT 0.4 Mn (TLU) [2, 4]: 1.72 TLU; BACKGROUND AT 0.4 Mn (TLU) [2, 5]: 1.32 TLU
COC12CC3CC(C1)C1(OOC1(OC)c1cccc(OP(=O)(O)O)c1)C(C3)C2 (single isomer, unassigned) [CH3 O-AMPPD-A]	0.83 RELATIVE LUMINOMETER UNITS		
COC1(c2cccc(OP(=O)(O)O)c2)OOC12C1CC3CC2CC(O)(C3)C1 (single isomer, unassigned) [HO-AMPPD]		0.83 TLU	
COC1(c2cccc(OP(=O)(O)O)c2)OOC12C1CC3CC2CC(I)(C3)C1 (single isomer, unassigned) [ISPD-A]	0.47 RELATIVE LUMINOMETER UNITS		
COC1(c2cccc(OP(=O)(O)O)c2)OOC12C1CC3CC2CC(I)(C3)C1 (single isomer, unassigned) [ISPD-B]	0.37 RELATIVE LUMINOMETER UNITS		
COC1(c2cccc(OP(=O)(O)O)c2)OOC12C1CC3CC2CC(OC(C)C)(C3)C1 (single isomer, unassigned) [i-PrO-AMPPD-A]	0.98 RELATIVE LUMINOMETER UNITS		
COC1(c2cccc(OP(=O)(O)O)c2)OOC12C1CC3CC2CC(OC(C)C)(C3)C1 (single isomer, unassigned) [i-PrO-AMPPD-B]	1.74 RELATIVE LUMINOMETER UNITS		
COC1(c2cccc(OP(=O)(O)O)c2)OOC12C1CC3CC(C1)CC2C3 (stereo not shown) [AMPPD, 3-(4-methoxyspiro[1,2-dioxetane-3,2'-triyclo[3.3.1.1^3,7]decan]-4-yl)phenyl phosphate, reference compound]	1.95 RELATIVE LUMINOMETER UNITS	1.83 TLU	BACKGROUND AT 0.4 Mn (TLU) [2, 4]: 1.96 TLU; BACKGROUND AT 0.4 Mn (TLU) [2, 5]: 2.09 TLU
COC1(c2cccc(OP(=O)(O)O)c2)OOC12C1CC3CC2CC(Br)(C3)C1 (stereo not shown) [Br-AMPPD, disodium 3-(4-methoxyspiro-[1,2-dioxetane-3,2'-(5'-bromo)tricyclo[3.3.1.1^3,7]decan]-4-yl) phenyl phosphate]		0.78 TLU	BACKGROUND AT 0.4 Mn (TLU) [2, 4]: 1.35 TLU; BACKGROUND AT 0.4 Mn (TLU) [2, 5]: 1.13 TLU
COC1(c2cccc(OP(=O)(O)O)c2)OOC12C1CC3CC2CC(Br)(C3)C1 (stereo not shown) [BrSPD]	0.93 RELATIVE LUMINOMETER UNITS		
COC12CC3CC(C1)C1(OOC1(OC)c1cccc(OP(=O)(O)O)c1)C(C3)C2 (stereo not shown) [CH3 O--AMPPD]		0.71 TLU	
COC1(c2cccc(OP(=O)(O)O)c2)OOC12C1CC3CC2CC(Cl)(C3)C1 (stereo not shown) [CSPD]	0.96 RELATIVE LUMINOMETER UNITS		
COC1(c2cccc(OP(=O)(O)O)c2)OOC12C1CC3CC2CC(Cl)(C3)C1 (stereo not shown) [Cl-AMPPD, disodium 3-(4-methoxyspiro-[1,2-dioxetane-3,2'-(5'-chloro)tricyclo[3.3.1.1^3,7]decan]-4-yl) phenyl phosphate]		0.83 TLU	BACKGROUND AT 0.4 Mn (TLU) [2, 4]: 0.93 TLU; BACKGROUND AT 0.4 Mn (TLU) [2, 5]: 0.77 TLU
COC1(c2cccc(OP(=O)(O)O)c2)OOC12C1CC3CC2CC(F)(C3)C1 (stereo not shown) [FSPD]	0.45 RELATIVE LUMINOMETER UNITS		
COC1(c2cccc(OP(=O)(O)O)c2)OOC12C1CC3CC2CC(I)(C3)C1 (stereo not shown) [I--AMPPD]		0.46 TLU	
CCCCOC12CC3CC(C1)C1(OOC1(OC)c1cccc(OP(=O)(O)O)c1)C(C3)C2 (stereo not shown) [n-BuO-AMPPD]	0.91 RELATIVE LUMINOMETER UNITS		
